Experimental data reported in paper PMC5828360, “Identification and characterization of highly versatile peptide-vectors that bind non-competitively to the low-density lipoprotein receptor for in vivo targeting and delivery of small molecules and protein cargos” (PLoS ONE, 2018).
Results are given in words; binding and its absence hold for the method and conditions named. Some entries that bind do so weakly or less than the wild type.

Biological target: human LDLR, endogenous on HUVEC (human (endogenous in HUVEC)) (UniProt P01130)
Experiment: flow cytometry on cells; 1.10^10 phage on 1.10^6 HUVEC, 20 min on ice, without or with LDL at 0.5 mg/mL; anti-M13 (anti-PVIII) and anti-hLDLR antibodies; signal in zone Q2; only the binder purified

**Q.** With TPSAHAMALQSLSVG [VH549 peptide displayed on phage] as the binder, how does the binding read?
**A.** binds
